These are yes or no findings as the source states them, for the method shown. Binding seen in cells or lysates may run through a third protein. These calls come from enrichment with a bait or labelling near it, and not all partners need be listed. Sequences can lack the tags named with a protein.

Chains of the proteins cited; added tags and fusions are not shown.
UniProt P10591: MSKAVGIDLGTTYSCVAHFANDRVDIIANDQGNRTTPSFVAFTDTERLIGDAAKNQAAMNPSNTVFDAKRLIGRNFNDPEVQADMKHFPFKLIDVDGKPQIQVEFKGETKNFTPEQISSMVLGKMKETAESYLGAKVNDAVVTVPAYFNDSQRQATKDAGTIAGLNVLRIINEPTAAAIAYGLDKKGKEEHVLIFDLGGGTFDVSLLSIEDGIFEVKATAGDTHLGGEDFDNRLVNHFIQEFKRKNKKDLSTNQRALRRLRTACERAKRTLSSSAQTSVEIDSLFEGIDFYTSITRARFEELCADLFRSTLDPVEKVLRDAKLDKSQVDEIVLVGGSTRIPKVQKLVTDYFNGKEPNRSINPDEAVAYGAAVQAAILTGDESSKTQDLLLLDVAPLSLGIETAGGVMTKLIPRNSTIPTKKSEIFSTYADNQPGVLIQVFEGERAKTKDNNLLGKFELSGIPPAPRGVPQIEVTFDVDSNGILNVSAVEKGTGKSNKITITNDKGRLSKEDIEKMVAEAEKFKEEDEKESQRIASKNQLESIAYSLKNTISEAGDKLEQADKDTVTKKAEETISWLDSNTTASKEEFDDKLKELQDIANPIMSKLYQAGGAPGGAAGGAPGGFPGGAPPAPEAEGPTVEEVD
UniProt P22202: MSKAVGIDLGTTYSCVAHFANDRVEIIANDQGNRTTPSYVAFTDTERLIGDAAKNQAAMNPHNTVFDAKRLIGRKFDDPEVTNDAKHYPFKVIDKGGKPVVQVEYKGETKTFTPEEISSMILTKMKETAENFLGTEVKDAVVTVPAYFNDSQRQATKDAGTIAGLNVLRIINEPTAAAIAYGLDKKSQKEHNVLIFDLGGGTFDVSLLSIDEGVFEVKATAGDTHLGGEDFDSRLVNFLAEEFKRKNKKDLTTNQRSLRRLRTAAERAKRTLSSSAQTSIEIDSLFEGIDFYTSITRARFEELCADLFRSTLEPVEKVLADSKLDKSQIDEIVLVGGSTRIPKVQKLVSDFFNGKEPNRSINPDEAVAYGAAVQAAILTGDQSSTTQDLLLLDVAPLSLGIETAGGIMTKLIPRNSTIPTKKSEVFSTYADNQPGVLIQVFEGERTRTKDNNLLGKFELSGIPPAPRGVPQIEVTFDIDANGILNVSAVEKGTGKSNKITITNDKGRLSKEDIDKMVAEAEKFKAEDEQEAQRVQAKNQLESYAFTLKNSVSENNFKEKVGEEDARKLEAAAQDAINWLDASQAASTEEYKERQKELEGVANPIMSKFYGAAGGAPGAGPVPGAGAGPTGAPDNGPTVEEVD

In article PMC11959614 one finds binding data, which are given here for 11 molecules.

The target of this experiment is T1, Sgt2-TEV–GFP (S. cerevisiae) (UniProt Q12118).
T1 sequence: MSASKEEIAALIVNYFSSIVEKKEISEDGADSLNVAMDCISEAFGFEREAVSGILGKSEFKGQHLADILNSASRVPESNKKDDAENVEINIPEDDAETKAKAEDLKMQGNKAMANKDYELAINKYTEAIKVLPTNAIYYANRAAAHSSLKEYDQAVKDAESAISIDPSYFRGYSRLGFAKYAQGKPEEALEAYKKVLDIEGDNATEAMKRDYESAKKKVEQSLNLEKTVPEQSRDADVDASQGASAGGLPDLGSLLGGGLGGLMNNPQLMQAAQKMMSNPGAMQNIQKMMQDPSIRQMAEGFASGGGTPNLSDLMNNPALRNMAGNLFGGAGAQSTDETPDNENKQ
As to the kind of experiment: affinity purification with mass spectrometry; Δsgt2 cells expressing Sgt2-TEV–GFP, glucose starved (4 h by results and legend); lysis in 50 mM Tris-HCl pH 7.4, 100 mM potassium acetate, 2 mM magnesium acetate, 0.5 mM DTT, 0.5% IGEPAL; GET body-enriched fraction by differential centrifugation; capture on GFP-Trap magnetic agarose beads at 4°C, elution by TEV protease; compared with Sgt2ΔTPR-TEV–GFP as control.

In the case of Ssa1 (from UniProt P10591 1-642), the binding result is “binds”.

As to Ssa4 (from UniProt P22202 1-642), the binding entry is “binds”.

B1: Sis1 (protein, UniProt P25294 1-352)
chain: MVKETKLYDLLGVSPSANEQELKKGYRKAALKYHPDKPTGDTEKFKEISEAFEILNDPQKREIYDQYGLEAARSGGPSFGPGGPGGAGGAGGFPGGAGGFSGGHAFSNEDAFNIFSQFFGGSSPFGGADDSGFSFSSYPSGGGAGMGGMPGGMGGMHGGMGGMPGGFRSASSSPTYPEEETVQVNLPVSLEDLFVGKKKSFKIGRKGPHGASEKTQIDIQLKPGWKAGTKITYKNQGDYNPQTGRRKTLQFVIQEKSHPNFKRDGDDLIYTLPLSFKESLLGFSKTIQTIDGRTLPLSRVQPVQPSQTSTYPGQGMPTPKNPSQRGNLIVKYKVDYPISLNDAQKRAIDENF
Turning to B1, the binding entry is listed as “binds”.

B2: Get5 (protein, UniProt Q12285 1-212)
chain: MSTSASGPEHEFVSKFLTLATLTEPKLPKSYTKPLKDVTNLGVPLPTLKYKYKQNRAKKLKLHQDQQGQDNAAVHLTLKKIQAPKFSIEHDFSPSDTILQIKQHLISEEKASHISEIKLLLKGKVLHDNLFLSDLKVTPANSTITVMIKPNPTISKEPEAEKSTNSPAPAPPQELTVPWDDIEALLKNNFENDQAAVRQVMERLQKGWSLAK
For B2, the binding result is “binds”.

B3: Get3 (protein, UniProt Q12154 1-354)
chain: MDLTVEPNLHSLITSTTHKWIFVGGKGGVGKTTSSCSIAIQMALSQPNKQFLLISTDPAHNLSDAFGEKFGKDARKVTGMNNLSCMEIDPSAALKDMNDMAVSRANNNGSDGQGDDLGSLLQGGALADLTGSIPGIDEALSFMEVMKHIKRQEQGEGETFDTVIFDTAPTGHTLRFLQLPNTLSKLLEKFGEITNKLGPMLNSFMGAGNVDISGKLNELKANVETIRQQFTDPDLTTFVCVCISEFLSLYETERLIQELISYDMDVNSIIVNQLLFAENDQEHNCKRCQARWKMQKKYLDQIDELYEDFHVVKMPLCAGEIRGLNNLTKFSQFLNKEYNPITDGKVIYELEDKE
Consider B3, for which the binding entry was “binds”.

B4: Sec53 (enzyme, UniProt P07283 1-254)
chain: MSIAEFAYKEKPETLVLFDVDGTLTPARLTVSEEVRKTLAKLRNKCCIGFVGGSDLSKQLEQLGPNVLDEFDYSFSENGLTAYRLGKELASQSFINWLGEEKYNKLAVFILRYLSEIDLPKRRGTFLEFRNGMINVSPIGRNASTEERNEFERYDKEHQIRAKFVEALKKEFPDYGLTFSIGGQISFDVFPAGWDKTYCLQHVEKDGFKEIHFFGDKTMVGGNDYEIFVDERTIGHSVQSPDDTVKILTELFNL
In the case of B4, the binding entry is “binds”.

B5: Ybr137w (protein, UniProt P38276 1-179)
chain: MVVLDKKLLERLTSRKVPLEELEDMEKRCFLSTFTYQDAFDLGTYIRNAVKENFPEKPVAIDISLPNGHCLFRTVTYGGSALDNDFWIQRKKKTALRFGHSSFYMGCKKGDKTPEEKFFVDSKEYAFHGGAVLIQSERSDYPYACLTISGLKQEEDHLMAVSSLIAFANESLEEDLNLD
B5: the binding result was “binds”.

B6: Sti1 (protein, UniProt P15705 1-589)
chain: MSLTADEYKQQGNAAFTAKDYDKAIELFTKAIEVSETPNHVLYSNRSACYTSLKKFSDALNDANECVKINPSWSKGYNRLGAAHLGLGDLDEAESNYKKALELDASNKAAKEGLDQVHRTQQARQAQPDLGLTQLFADPNLIENLKKNPKTSEMMKDPQLVAKLIGYKQNPQAIGQDLFTDPRLMTIMATLMGVDLNMDDINQSNSMPKEPETSKSTEQKKDAEPQSDSTTSKENSSKAPQKEESKESEPMEVDEDDSKIEADKEKAEGNKFYKARQFDEAIEHYNKAWELHKDITYLNNRAAAEYEKGEYETAISTLNDAVEQGREMRADYKVISKSFARIGNAYHKLGDLKKTIEYYQKSLTEHRTADILTKLRNAEKELKKAEAEAYVNPEKAEEARLEGKEYFTKSDWPNAVKAYTEMIKRAPEDARGYSNRAAALAKLMSFPEAIADCNKAIEKDPNFVRAYIRKATAQIAVKEYASALETLDAARTKDAEVNNGSSAREIDQLYYKASQQRFQPGTSNETPEETYQRAMKDPEVAAIMQDPVMQSILQQAQQNPAALQEHMKNPEVFKKIQTLIAAGIIRTGR
Regarding B6, the binding entry is “binds”.

B7: Get4 (protein, UniProt Q12125 1-312)
chain: MVPAESNAVQAKLAKTLQRFENKIKAGDYYEAHQTLRTIANRYVRSKSYEHAIELISQGALSFLKAKQGGSGTDLIFYLLEVYDLAEVKVDDISVARLVRLIAELDPSEPNLKDVITGMNNWSIKFSEYKFGDPYLHNTIGSKLLEGDFVYEAERYFMLGTHDSMIKYVDLLWDWLCQVDDIEDSTVAEFFSRLVFNYLFISNISFAHESKDIFLERFIEKFHPKYEKIDKNGYEIVFFEDYSDLNFLQLLLITCQTKDKSYFLNLKNHYLDFSQAYKSELEFLGQEYFNIVAPKQTNFLQDMMSGFLGGSK
Regarding B7, the binding entry is “binds”.

B8: Sse2 (protein, UniProt P32590 1-693)
chain: MSTPFGLDLGNNNSVLAVARNRGIDVVVNEVSNRSTPSLVGFGPRNRYLGESGKTKQTSNVKNTVENLKRIIGLKFKDPEFDIENKFFTSKLVQLKNGKVGVEVEFGGKTHVFSATQLTAMFIDKVKHTVQEETKSSITDVCLAVPVWYSEEQRYNIADAARIAGLNPVRIVNDVTAAAVSYGVFKNDLPGPEEKPRIIGLVDIGHSTYTCSIMAFRKGEMKVLGTAYDKHFGGRDFDRAITEHFADQFKDKYKIDIRKNPKAYNRILIAAEKLKKVLSANTTAPFSVESVMDDIDVSSQLSREELEELVEPLLKRVTYPITNALAQAKLTVNDIDFVEIIGGTTRIPVLKKSISDVFGKPLSSTLNQDEAVAKGAAFICAIHSPTLRVRPFKFEDIDPYSVSYTWDKQVDDEDRLEVFPANSSYPSTKLITLHRTGDFSMKAVYTHPSKLPKGTSTTIAKWSFTGVKVPKDQDFIPVKVKLRCDPSGLHIIENAYTTEDITVQEPVPLPEDAPEDAEPQFKEVTKTIKKDVLGMTAKTFALNPVELNDLIEKENELRNQDKLVAETEDRKNALEEYIYTLRAKLDDEYSDFASDAEKEKLKNMLATTENWLYGDGDDSTKAKYIAKYEELASLGNIIRGRYLAKEEEKRQALRANQETSKMNDIAEKLAEQRRARAASDDSDDNNDENMDLD
For B8, the binding entry is reported as “binds”.

B9: Paa1 (enzyme, UniProt Q12447 1-191)
chain: MASSSSTLPLHMYIRPLIIEDLKQILNLESQGFPPNERASEEIISFRLINCPELCSGLFIREIEGKEVKKETLIGHIMGTKIPHEYITIESMGKLQVESSNHIGIHSVVIKPEYQKKNLATLLLTDYIQKLSNQEIGNKIVLIAHEPLIPFYERVGFKIIAENTNVAKDKNFAEQKWIDMERELIKEEYDN
Regarding B9, the binding result is listed as “binds”.
